Assay results published in the supplement of paper PMC10331698.
± gives the standard deviation of the averaged measurements. Small differences around the control level are noise.

Tests used:
Assay in all cases: level (log10 ratio to DMSO vehicle control); higher = higher biomarker level / cell amount than vehicle control
[1] = compound: NC(=O)C(F)(F)C(F)(F)F [Pentafluoropropionamide]; settings: 2200 nM; in DMSO
Description: (§1)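 BioMAP Diversity Plus panel of 12 human primary cell co-culture systems (3C, 4H, LPS, SAg, BT, BF4T, BE3C, CASM3C, HDF3CGF, KF3CT, MyoF, Mphg). Compounds were added 1 h before stimulation and left for 24 h (MyoF 48 h; BT 72 h for soluble read-outs or 6 d for IgG). Biomarkers were read by ELISA, cytotoxicity by SRB, PBMC viability and proliferation by Alamar Blue. Each well value was divided by the mean of 8 DMSO control wells on the same plate and log10 transformed; duplicate blinded samples were tested at 4 concentrations.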

[2] = compound: CO[Si](C)(CCC(F)(F)C(F)(F)C(F)(F)C(F)(F)C(F)(F)C(F)(F)F)OC [Dimethoxymethyl((perfluorohexyl)ethyl)silane]; settings: in DMSO
Description: as §1

[3] = compound: O=S(=O)(OCC(F)(F)F)C(F)(F)C(F)(F)C(F)(F)C(F)(F)F [2,2,2-Trifluoroethyl perfluorobutanesulfonate]; settings: 2200 nM; in DMSO
Description: as §1

[4] = compound: O=S(=O)(F)C(F)(F)C(F)(F)C(F)(F)C(F)(F)C(F)(F)C(F)(F)C(F)(F)C(F)(F)F [Perfluorooctanesulfonyl fluoride]; settings: 2200 nM; in DMSO
Description: as §1

[5] = compound: C=CC(F)(F)C(F)(F)C(F)(F)C(F)(F)C(F)(F)C(F)(F)C(F)(F)C(F)(F)C=C [1,8-Divinylperfluorooctane]; settings: in DMSO
Description: as §1

[6] = compound: FC(F)(F)C(F)(F)C(F)(F)CI [Heptafluorobutyl iodide]; settings: 2200 nM; in DMSO
Description: as §1

[7] = compound: O=P(O)(O)CCC(F)(F)C(F)(F)C(F)(F)C(F)(F)C(F)(F)C(F)(F)F [2-(Perfluorohexyl)ethylphosphonic acid]; settings: 2200 nM; in DMSO
Description: as §1

[8] = compound: FC(F)(F)C(F)(F)C(F)(F)CC1CO1 [1H,1H-Heptafluorobutyl epoxide]; settings: 2200 nM; in DMSO
Description: as §1

[9] = compound: O=S(=O)(O)C(F)(F)C(F)(F)C(F)(F)C(F)(F)C(F)(F)C(F)(F)C(F)(F)C(F)(F)F [Perfluorooctanesulfonic acid]; settings: 2200 nM; in DMSO
Description: as §1

[10] = compound: O=S(=O)(O)C(F)(F)C(F)(F)C(F)(F)C(F)(F)C(F)(F)C(F)(F)C(F)(F)C(F)(F)F [Potassium perfluorooctanesulfonate]; settings: 2200 nM; in DMSO
Description: as §1

[11] = compound: COC(=O)C(F)(F)C(F)(F)OC(F)(C(F)(F)F)C(F)(F)OC(F)=C(F)F [Methyl perfluoro(3-(1-ethenyloxypropan-2-yloxy)propanoate)]; settings: in DMSO
Description: as §1

[12] = compound: C=C(C)C(=O)OCC(F)(F)C(F)(F)C(F)(F)C(F)(F)C(F)(F)C(F)(F)C(F)(F)F; settings: in DMSO
Description: as §1

[13] = compound: NC(=O)C(F)(F)C(F)(F)C(F)(F)C(F)F; settings: in DMSO
Description: as §1

[14] = compound: O=C(O)C(F)(F)C(F)(F)C(F)F [4H-Perfluorobutanoic acid]; settings: in DMSO
Description: as §1

[15] = compound: OCC(F)(F)C(F)(F)C(F)(F)C(F)(F)C(F)(F)C(F)F [1H,1H,7H-Dodecafluoro-1-heptanol]; settings: 2200 nM; in DMSO
Description: as §1

[16] = compound: OCCCCC(F)(F)C(F)(F)C(F)(F)C(F)(F)F [4:4 Fluorotelomer alcohol]; settings: 2200 nM; in DMSO
Description: as §1

[17] = compound: C=CC(=O)OCC(F)(F)C(F)(F)C(F)(F)C(F)(F)C(F)(F)C(F)(F)C(F)(F)F [1H,1H-Perfluorooctyl acrylate]; settings: 2200 nM; in DMSO
Description: as §1

[18] = compound: NS(=O)(=O)C(F)(F)C(F)(F)C(F)(F)C(F)(F)C(F)(F)C(F)(F)C(F)(F)C(F)(F)F [Perfluorooctanesulfonamide]; settings: in DMSO
Description: as §1

Test System	level (log10) [1]	level (log10) ([2]; 740 nM)	level (log10) ([2]; 2200 nM)	level (log10) [3]	level (log10) [4]	level (log10) ([5]; 740 nM)	level (log10) ([5]; 2200 nM)	level (log10) [6]	level (log10) [7]	level (log10) [8]	level (log10) [9]	level (log10) [10]	level (log10) ([11]; 740 nM)	level (log10) ([11]; 2200 nM)	level (log10) ([12]; 740 nM)	level (log10) ([12]; 2200 nM)	level (log10) ([13]; 2200 nM)	level (log10) ([13]; 6700 nM)	level (log10) ([13]; 20000 nM)	level (log10) ([13]; 60000 nM)	level (log10) ([14]; 2200 nM)	level (log10) ([14]; 6700 nM)	level (log10) ([14]; 20000 nM)	level (log10) ([14]; 60000 nM)	level (log10) [15]	level (log10) [16]	level (log10) [17]	level (log10) ([18]; 2200 nM)	level (log10) ([18]; 6700 nM)	level (log10) ([18]; 20000 nM)
CASM3C:CD106/VCAM-1	-0.003 ± 0.04	-0.021 ± 0.0071	-0.0125 ± 0.016	-0.0135 ± 0.022	0.008 ± 0.0042	-0.017 ± 0.057	-0.001 ± 0.0028	0.011 ± 0.016	-0.0145 ± 0.022	-0.0195 ± 0.0064	-0.0055 ± 0.043	0.0205 ± 0.061	-0.0035 ± 0.012	-0.0085 ± 0.005	0.0005 ± 0.011	-0.011 ± 0.014	-0.0155 ± 0.012	-0.009 ± 0.0057	-0.003 ± 0.014	-0.008 ± 0.014	0.014 ± 0.014	0.031 ± 0.057	0.041 ± 0.014	0.04 ± 0.0085	0.01 ± 0.014	0.02 ± 0.09	0.0175 ± 0.013	0.0165 ± 0.036	-0.0185 ± 0.0021	-0.0405 ± 0.037
KF3CT:IL-1alpha	0.0005 ± 0.029	0 ± 0.024	-0.0185 ± 0.0064	0.007 ± 0.059	-0.012 ± 0.018	-0.0005 ± 0.028	-0.0475 ± 0.0021	-0.025 ± 0.028	-0.0205 ± 0.023	0.0025 ± 0.05	0.0175 ± 0.023	0.0145 ± 0.005	0.02 ± 0.021	0.0255 ± 0.025	0.0205 ± 0.08	-0.0085 ± 0.047	0.0115 ± 0.076	-0.0165 ± 0.011	-0.0265 ± 0.005	0.008 ± 0.045	-0.0265 ± 0.028	0.001 ± 0.05	-0.0055 ± 0.005	0.0075 ± 0.06	0.0055 ± 0.021	0.0115 ± 0.00071	-0.01 ± 0.016	0.0675 ± 0.018	0.074 ± 0.0042	-0.056 ± 0.02
SAg:CCL2/MCP-1	-0.0005 ± 0.00071	0.03 ± 0.0085	0.006 ± 0.02	0.016 ± 0.044	0.0065 ± 0.023	-0.001 ± 0.03	0.0035 ± 0.011	0.0025 ± 0.00071	0.0185 ± 0.0035	0.0105 ± 0.04	-0.0185 ± 0.029	0.0115 ± 0.033	0.011 ± 0.024	0.013 ± 0.021	0.0075 ± 0.03	0.012 ± 0.0028	0.005 ± 0.052	-0.0145 ± 0.026	-0.024 ± 0.013	0.0115 ± 0.03	-0.012 ± 0.03	-0.011 ± 0.038	-0.0085 ± 0.04	-0.0065 ± 0.081	0.019 ± 0.021	-0.004 ± 0.018	-0.0075 ± 0.026	0.022 ± 0.048	-0.0125 ± 0.021	0.0075 ± 0.015
lMphg:CXCL8/IL-8	0.0055 ± 0.0092	0.025 ± 0.035	0.0055 ± 0.015	0.0285 ± 0.0035	0.0205 ± 0.036	0.021 ± 0.044	0.0065 ± 0.0021	0.015 ± 0.016	0.01 ± 0.075	-0.002 ± 0.062	0.011 ± 0.075	0.018 ± 0.068	0.045 ± 0.013	0.04 ± 0.017	-0.001 ± 0.0042	-0.0305 ± 0.033	0.0015 ± 0.074	-0.0235 ± 0.0078	-0.0225 ± 0.028	0.0185 ± 0.047	0.014 ± 0.031	0.024 ± 0.0028	0.0145 ± 0.0021	0.0315 ± 0.011	-0.0085 ± 0.073	-0.0085 ± 0.083	0.0335 ± 0.0035	0.0195 ± 0.08	0.004 ± 0.0042	0.124 ± 0.019
